Measured values: patent US20090074867A1, “ORALLY DISPERSIBLE PHARMACEUTICAL COMPOSITION AND PROCESS FOR THE PREPARATION THEREOF” (priority 2004, published 2009)
Where “and” joins values, the source holds several entries; their conditions need not be identical. Equal values may be shown once.

Test: Evaluation of palatability, 5 individuals sensitive to the irritating action of ibuprofen
Type: in vivo, persons
Design: key: strong (3); medium (2); weak (1); zero (0)
Settings: 200 mg active ingredient, score per individual 1-5, higher = worse

CC(C)Cc1ccc(C(C)C(=O)O)cc1 (centres unmarked) [Ibuprofen BP 80, Ibuprofen]
Burning t0 (t0 when placed in the mouth): 3 | Dullness t0 (t0 when placed in the mouth): 3 (3×) and 2 (2×) | Prickling t0 (t0 when placed in the mouth): 3 | Sandiness t0 (t0 when placed in the mouth): 2 (2×) and 1 (3×) | Tingling t0 (t0 when placed in the mouth): 3 | Burning t1 (t1 during swallowing): 3 | Dullness t1 (t1 during swallowing): 2 (3×) and 3 (2×) | Prickling t1 (t1 during swallowing): 3 (4×) and 2 | Sandiness t1 (t1 during swallowing): 1 | Tingling t1 (t1 during swallowing): 2 (2×) and 3 (3×) | Burning t2 (t2 after swallowing): 2 (2×) and 3 (2×) and 1 | Dullness t2 (t2 after swallowing): 1 (3×) and 2 (2×) | Prickling t2 (t2 after swallowing): 2 and 3 (2×) and 1 (2×) | Sandiness t2 (t2 after swallowing): 0 | Tingling t2 (t2 after swallowing): 2 (2×) and 3 and 1 (2×) | Burning t3 (t3 after 5 minutes): 1 (3×) and 3 and 2 | Dullness t3 (t3 after 5 minutes): 0 (3×) and 1 (2×) | Prickling t3 (t3 after 5 minutes): 0 (2×) and 2 (2×) and 1 | Sandiness t3 (t3 after 5 minutes): 0 | Tingling t3 (t3 after 5 minutes): 2 and 1 (2×) and 0 (2×)
